According to PubChem BioAssay AID1347426 (Functional Genomics Laboratory (NCATS/FGL), 2020):
The whole screen tested about 31,000 sequences, of which about 1,400 (4.5%) were called active.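 Rule for the calls: active = median seed-adjusted z-score above 1 or below -1; inactive = the rest.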 This is one part of the list.

assay: Novel Modifiers of Survival Motor Neuron (SMN) Protein: Gene Identification via Genome-wide siRNA Screen; settings: HEK293T SMN2-luciferase reporter, siRNA knockdown, 72 h; actives lie on both sides;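 note: luminescence tracks full-length SMN protein made from the SMN2 reporter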
Summary of the method: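 HEK293T cells stably expressing an SMN2 splicing/cDNA-luciferase reporter were reverse-transfected with a druggable-genome siRNA library and read by luminescence at 72 hours; hits defined by MAD score above 1.0 or below -1.0.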

Sequence | median seed-adjusted z-score
CCAAGGCUCUCACACUUAUTT against PGLYRP3 | inactive: -0.671
CCACCCUUGUGGACAACCUTT against NPFFR1 | inactive: -0.613
AGGGAGGUGUUUAACGGCATT against HMOX1 | inactive: 0.45
GCAAAGCUGCUAAACCGUATT against POFUT1 | inactive: 0
CCUCGACCUGGUCACUUUATT against TRMU | inactive: 0.0312
GAUUCAACGAUGUUACGCATT against RG9MTD2 | inactive: -0.599
GAAACAAACUUAUAGUGAUTT against WBP5 | inactive: 0.452
AGGAGCCCGUUGACACUGATT against SOLH | inactive: -0.791
CAUCAGAUUUUGCGAAGAATT against SORT1 | inactive: -0.43
GGUGGUAUCUGGGUCUGAATT against FGF13 | inactive: 0.875
CGAUUAUUAGUAGAGUUCATT against PPME1 | inactive: 0.342
GGUUAUUUCCAGGCAUAUATT against MCOLN2 | inactive: -0.0234
GUACCUUGAGAAGAAAUUUTT against ACCN1 | inactive: -0.325
CAAUUCCUCCGUCCGCUAATT against IDH3G | inactive: -0.426
GAGUCUCCGUUUGUCGCCATT against FKBP9L | inactive: 0.666
GGAGAAGUAUUACUACGAUTT against MYCBP2 | inactive: 0
GGAAUCCACAAAUACCAAATT against CATSPER2 | inactive: -0.653
CUGUGGGAGUUAUUGUCAATT against CDH13 | inactive: 0
CGGAAGCAGUUCCAACUUUTT against AKAP8 | inactive: -0.252
UCAUGAACCUGAUCUGUGATT against RDH5 | inactive: 0.305
GGUCACCAGUGGGUCAUAATT against DPP4 | inactive: 0.0394
GCAACACCAUCGUCUGUGATT against P2RY13 | inactive: -0.0427

Sequence | median seed-adjusted z-score
GGAUAUCCUGCUAGAAGAATT against GALNT12 | inactive: 0.188
CCCUCUCAGUACUACGCUATT against ZMYND10 | inactive: 0.255
GAAGUCAAGUGAAACGAAUTT against SAMD7 | inactive: 0.161
GGCAAUCACUGGUUCGUCUTT against GPR42 | inactive: -0.0972
ACAUCAAGGAGUAUUUCUATT against CCL5 | inactive: 0.11
CGAUCUCAUAAACUUCGUATT against TJP1 | inactive: 0.0302
CUCCUACAGUGCUAUCAGATT against ENPP2 | inactive: -0.305
UGAUCGAAGUGACCCUUCATT against SDR9C7 | inactive: 0
CAGUCGCUUCCAAACUCUATT against HOXD8 | inactive: -0.883
GGAUGAAGUAUUCGACUUATT against SNX13 | inactive: 0.253
GGGCUAACUUGGAUUCAUATT against NUP88 | inactive: 0.709
ACCCUAUGUUGAACAAGAATT against ISYNA1 | inactive: 0
GAACUAUACUUGUCAUGCATT against IL1R1 | inactive: 0.135
GCAUGUAGCUGCAAUACAATT against SLC9A11 | inactive: -0.12
CAAGCACAUUAUACGUAUATT against SLC9A6 | inactive: -0.0831
AGAUGAAACGGACCCUUUUTT against RGS2 | inactive: 0.00236
CCAGGUUCUUAGAGUAGUATT against ME1 | inactive: -0.258
GCAAGUGGUUUGUCAGUAATT against B3GALT5 | inactive: 0.144
CCUUCACACGUACCACAAATT against TEKT2 | inactive: -0.349
GAGAGAUCCUCAGACAGAATT against HTATSF1 | inactive: -0.411
CAGAUGCAAUUGUCAAAUUTT against TKTL2 | inactive: -0.0379
ACUCUAUAUUGAUGCCCUATT against DGAT2L4 | inactive: 0.145

Sequence | median seed-adjusted z-score
AGGUUUCAUUGAUAGGCUATT against ZNF222 | inactive: 0.13
GGCUACCAGUUUGUGCAGATT against RHOT2 | inactive: 0.263
AAUCACAACUCCUAAAAGATT against POLR2J3 | active: -5.42
GGGUCUUACUGAUUCCACATT against A4GNT | inactive: 0.213
CCUAGAAGCUUGUUCCAAUTT against STRADA | inactive: 0.415
GUACCUUAUUCUACCACUATT against NDUFA12 | inactive: -0.377
CAGGAAGCAUUGUCGGGCATT against LDHD | inactive: 0
ACAUAUAAUAUGUAUGAGATT against ZNF322A | inactive: 0.0884
CCAUUGGAUUCGCUCUGAATT against CASR | inactive: 0.111
CCUACUUUACGGGUUCUAATT against TXNDC17 | inactive: 0.245
CGUUUAACGUGGUGCUGUUTT against GPR32 | active: -1.2
GCAAUAGUCAGGAGCGAUATT against PPP1R10 | active: 1.41
GGGAUAAGUGGGACCAGUATT against CHERP | inactive: 0.155
GCACGUACCUCAUUCAGCATT against ZNF550 | inactive: 0.131
AGUUCACCCUCUUCAAGAATT against ZFYVE19 | inactive: 0.0704
CGGAGUUCACAGCUCUAUATT against BCL2L2 | inactive: 0
CAUUGUAAAUUAUGCGAGUTT against ZFR | inactive: -0.048
GCAUCUUCGUGGAACUGCATT against EPHA10 | inactive: 0.502
GCAUAGCCUAUUUACGGAATT against UNC5D | inactive: -0.132
CCGCCGUUAUUAAACGAUUTT against HBS1L | inactive: -0.509
CCUAACCUGCUGUCUCUUATT against ZNF646 | inactive: 0
GUCUUAGAAUGUGAACGUATT against CCNL1 | active: -1.26

Part of the list above, field by field:
AGGUUUCAUUGAUAGGCUATT against ZNF222
  median seed-adjusted z-score: inactive: 0.13
GGGUCUUACUGAUUCCACATT against A4GNT
  median seed-adjusted z-score: inactive: 0.213
CCUACUUUACGGGUUCUAATT against TXNDC17
  median seed-adjusted z-score: inactive: 0.245
GCAAUAGUCAGGAGCGAUATT against PPP1R10
  median seed-adjusted z-score: active: 1.41

(listing goes on)

Sequence | median seed-adjusted z-score
AGGGCUACGCUGACCUGUATT against CYB561 | inactive: 0
GUGAGGAGUCCAUCCUGUATT against VPS16 | inactive: 0.306
CUGUCAUACUUUGACCGAATT against TJP1 | inactive: 0.0302
CAAGAGCUGUCGUGACUCATT against GPR120 | inactive: -0.578
GGCAUACCCAACAACCUCATT against GALE | inactive: -0.153
GGAUGUGAAUGUCGCUAUUTT against TUBA8 | inactive: -0.0453
GUAGCUAAAUCAUAUAACATT against CGA | inactive: 0.0904
GAGAGACAGUUAUUAAGGATT against DCTN1 | inactive: 0.25
GAUCCGACUGGAGAAUGAATT against KRT10 | inactive: 0.493
AGGACCACGCGUCUACUUUTT against PPP1R14B | inactive: 0.205
GGAAUGACAUGUACGAUGATT against USP7 | inactive: 0.105
GGAUGAGAGAGGACAUGCATT against STK32C | inactive: -0.311
GGCUAUUGAUAGAGUUAAATT against PRIM2 | inactive: -0.0161
GAGUUAUUGUGGAAGUAGATT against PCDHA4 | inactive: -0.268
AGAACAAGCUUUCCAAUCATT against ME3 | inactive: 0.166
GAAUUUGCAACCAAGCUAATT against SPTAN1 | inactive: -0.233
ACCUCCUUGUGAUAACGGATT against KLRG1 | inactive: -0.0324
CGAGUGUUCCCGGACAACATT against PODNL1 | inactive: -0.448
GGUUUGAGCUUACUCUUCATT against ACCN5 | inactive: 0.227
GCCUGAAGUUUCGAAAGAATT against CXCR6 | inactive: 0.71
CAGAUCUUAUUAAGAGGUATT against ATP8A2 | inactive: 0
GGAUGACUGAGUACCUGAATT against BCL2 | inactive: 0

Sequence | median seed-adjusted z-score
CGUUGAGAGUACUACCGAATT against SEC24C | inactive: 0.163
UGGUCCAGGUGAUUCGGCATT against TRIM41 | inactive: -0.164
CGCCUUUGCUCAUGACAUUTT against NOS2A | inactive: 0.419
GCGGGUACUUCGUUCCUUATT against SLC16A11 | inactive: -0.396
GCACCUUUGCAUUAUGUUATT against VN1R2 | inactive: -0.151
AAGUUUUCAUCAUCCGCAATT against SOAT2 | inactive: 0.612
CUCUCUCAACGAUGCCUAUTT against DUSP9 | inactive: 0.61
UGCUAGUCCUGGGAACAGATT against PPM1J | inactive: -0.901
GGCUCACAAUCACUUGAUUTT against ZNF578 | inactive: -0.808
GGAGGAGUGAGAAUCAGAATT against ZBED1 | inactive: 0.0567
GCAAGAUUCGGGUUAUUGATT against CORO2A | inactive: 0
ACAAGUUACUGAACCAGGATT against PRKCG | inactive: 0
CCAUCAACGCCAACGUGCATT against ELA2 | inactive: 0.586
GGAGCAUUUUGAUACCAGATT against CCND1 | inactive: -0.912
GCAAAUUGCUUGCGCCUGATT against XIRP2 | inactive: -0.404
GACCCGAAAAUGUUGCGGATT against IRX5 | inactive: -0.373
CCAUUGAUCUGCACUACUATT against NUP85 | inactive: 0.948
GCACAAUUGAUGACACCAUTT against CLINT1 | inactive: 0.332
GAACAGUUGCUAGACAGUATT against TESK2 | inactive: 0
CAAAUCGCCUAAUAAACUUTT against KRT33B | inactive: 0.04
